Measurements taken from patent publication US20260327233A1, “Heteroaryl Compounds as Ligand Directed Degraders of IRAK4” (Celgene Corporation, priority 2023, published 2026).

The chains behind the UniProt entries cited, without tags or fusion partners.
UniProt Q9NWZ3, whole entry: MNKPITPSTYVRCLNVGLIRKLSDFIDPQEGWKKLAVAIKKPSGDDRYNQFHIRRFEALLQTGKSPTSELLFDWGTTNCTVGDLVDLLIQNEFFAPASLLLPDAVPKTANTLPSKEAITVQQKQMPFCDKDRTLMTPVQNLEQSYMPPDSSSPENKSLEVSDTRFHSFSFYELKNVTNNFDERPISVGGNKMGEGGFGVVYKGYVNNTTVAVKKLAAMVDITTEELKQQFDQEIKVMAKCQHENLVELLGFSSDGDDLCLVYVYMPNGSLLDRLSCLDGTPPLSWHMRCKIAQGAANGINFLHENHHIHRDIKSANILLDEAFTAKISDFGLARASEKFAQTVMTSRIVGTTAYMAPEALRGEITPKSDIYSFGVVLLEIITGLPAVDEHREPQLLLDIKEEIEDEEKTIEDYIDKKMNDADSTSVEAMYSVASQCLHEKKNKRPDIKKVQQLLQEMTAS

Target: IRAK4 (Homo sapiens, UniProt Q9NWZ3)
Assay: ALE THP1 HTRF (IRAK4 HTRF in THP1 cell lysate, Cisbio HTRF kit)
Details: anti-IRAK4 d2 / anti-IRAK4 k antibodies, tested form: 2HCl
Description: Cell culture media was prepared in a tissue culture hood in a sterile environment by adding 10% FBS and 1% Penicillin Streptomycin to 500 mL no phenol red RPMI 1640 media. The media was filtered through a Nalgene Bottle Top Filter and stored at 4° C.
For Homogenous Time Resolved Fluorescence (HTRF) assays, a Cisbio HTRF kit was used, which included: Lysis Buffer #1 4×, Blocking Reagent #3 100×, 20× Antibody 1 (Anti-IRAK4 d2), 20× Antibody 2 (Anti-IRAK4 k), and Detection Buffer.
4× Lysis Buffer was stored at 4° C. For use as 1× Lysis buffer, the 4× solution was diluted with de-ionized water (distilled water, Gibco Cat. #15230279) and 100× Blocking Reagent in a 1:3:0.04 volume ratio.
20× Antibody Solution aliquots were stored at −80° C. and the Detection Buffer was stored at 4° C. For use as a 1× Antibody Solution, the 20× Antibody Solution aliquot was diluted with Detection Buffer in a 1:19 volume ratio.
Cells were lysed at room temperature for 45 min with shaking. A BCA protein assay was performed and normalization was conducted to the desired total protein concentration with 1× lysis buffer. Next, 1× Antibody Solutions were prepared by adding 380 μL Detection Buffer to 20 μL 20× Antibody Solution aliquots and mixing well. 1× Antibody Solutions were combined 1:1 and briefly vortexed. […] The samples were analyzed by a plate reader (Envision, PerkinElmer) using the Desnor 384 HTRF program.

N[C@@H]1C[C@@H](F)CN(c2ccn3ncc(C(=O)Nc4cn([C@H]5CC[C@H](CN6CCC7(CCN(c8ccc9c(c8)CN(C8CCC(=O)NC8=O)C9=O)CC7)C6)CC5)nc4C(F)F)c3n2)C1 (stereo partly shown)
ALE THP1 HTRF YMIN: 9%

The match of structure and compound is tentative.
